Results reported in patent publication US20040147562A1, “Methods of treating conditions associated with an EDG-1 receptor” (priority 2002, published 2004).
For some assays here: At least one compound was matched to its structure with a doubt left. Some of these results come from one statement about several compounds together.

Amino acid sequences for entries named in this document (tags omitted). A change or cut given only in a name is not applied to a line headed by its entry. Residues count along the entry.
UniProt Q92633: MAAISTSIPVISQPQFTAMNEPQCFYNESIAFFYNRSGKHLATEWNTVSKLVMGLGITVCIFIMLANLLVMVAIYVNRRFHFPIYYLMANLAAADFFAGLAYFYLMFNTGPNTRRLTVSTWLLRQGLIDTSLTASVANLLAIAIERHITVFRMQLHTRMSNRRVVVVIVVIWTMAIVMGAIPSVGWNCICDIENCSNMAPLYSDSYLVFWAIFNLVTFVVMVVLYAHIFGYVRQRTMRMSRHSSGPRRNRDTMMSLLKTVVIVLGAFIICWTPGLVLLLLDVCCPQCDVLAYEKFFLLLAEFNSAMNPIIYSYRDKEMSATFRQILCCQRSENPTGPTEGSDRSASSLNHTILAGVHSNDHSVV
UniProt Q99500: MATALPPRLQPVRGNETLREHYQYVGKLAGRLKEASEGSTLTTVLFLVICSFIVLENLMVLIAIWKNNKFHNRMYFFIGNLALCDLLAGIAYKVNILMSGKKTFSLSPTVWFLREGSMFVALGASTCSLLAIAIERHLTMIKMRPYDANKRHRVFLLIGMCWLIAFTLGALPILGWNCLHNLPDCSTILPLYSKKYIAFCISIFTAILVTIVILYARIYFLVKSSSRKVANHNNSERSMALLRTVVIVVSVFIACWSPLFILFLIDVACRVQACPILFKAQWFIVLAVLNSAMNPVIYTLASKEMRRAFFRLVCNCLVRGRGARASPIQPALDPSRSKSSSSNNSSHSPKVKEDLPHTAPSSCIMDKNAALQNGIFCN
UniProt Q9HBW0, 1-340 limits assumed: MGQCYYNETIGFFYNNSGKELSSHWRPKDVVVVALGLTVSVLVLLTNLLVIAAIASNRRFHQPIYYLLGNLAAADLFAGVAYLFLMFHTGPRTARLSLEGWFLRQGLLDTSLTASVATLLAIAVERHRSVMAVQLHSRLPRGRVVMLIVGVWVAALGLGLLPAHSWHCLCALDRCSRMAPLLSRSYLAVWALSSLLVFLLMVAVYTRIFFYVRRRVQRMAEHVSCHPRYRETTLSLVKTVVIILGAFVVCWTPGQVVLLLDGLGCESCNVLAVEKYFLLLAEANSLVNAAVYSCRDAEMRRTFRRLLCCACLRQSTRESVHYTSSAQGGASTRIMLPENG
UniProt O95136: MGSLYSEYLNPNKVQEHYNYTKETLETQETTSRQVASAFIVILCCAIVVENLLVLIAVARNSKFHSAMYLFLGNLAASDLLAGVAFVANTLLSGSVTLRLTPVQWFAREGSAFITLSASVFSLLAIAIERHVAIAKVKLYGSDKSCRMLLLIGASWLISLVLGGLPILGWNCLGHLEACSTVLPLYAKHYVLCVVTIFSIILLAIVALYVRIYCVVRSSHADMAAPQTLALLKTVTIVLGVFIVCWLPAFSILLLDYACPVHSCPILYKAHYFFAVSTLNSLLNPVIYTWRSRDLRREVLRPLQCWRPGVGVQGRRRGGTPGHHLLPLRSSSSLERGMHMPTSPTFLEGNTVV
UniProt Q9H228: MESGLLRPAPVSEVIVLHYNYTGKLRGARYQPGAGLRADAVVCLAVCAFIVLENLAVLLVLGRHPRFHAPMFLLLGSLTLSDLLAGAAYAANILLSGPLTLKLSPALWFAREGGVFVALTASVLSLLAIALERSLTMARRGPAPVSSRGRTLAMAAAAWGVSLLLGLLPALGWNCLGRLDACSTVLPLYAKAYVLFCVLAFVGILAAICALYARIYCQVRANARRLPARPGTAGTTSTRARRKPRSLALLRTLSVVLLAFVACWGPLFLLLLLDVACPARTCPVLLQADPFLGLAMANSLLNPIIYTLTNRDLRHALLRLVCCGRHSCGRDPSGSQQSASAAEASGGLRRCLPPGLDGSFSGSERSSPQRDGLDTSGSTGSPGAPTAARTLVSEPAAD

What was measured:
Assay type in all cases: cell-based
[1] = system: Edg receptors other than Edg-1; assay: Activity against Edg receptors other than Edg-1; conditions: at 20 μM
Edg-2 = target: T1, Edg-2 (Homo sapiens, UniProt Q92633); assay: Intracellular calcium (FLIPR) assay, HTC cells expressing Edg-2; conditions: concentrations as high as 20 μM
T1 construct: expressed in transfected cells; host or cells: HTC rat hepatoma cells

Edg-3 = target: T2, Edg-3 (Homo sapiens, UniProt Q99500); assay: Intracellular calcium (FLIPR) assay, HTC cells expressing Edg-3; conditions: concentrations as high as 20 μM
T2 construct: expressed in transfected cells; host or cells: HTC rat hepatoma cells

Edg-4 = Edg-4 (Homo sapiens, UniProt Q9HBW0); assay: Intracellular calcium (FLIPR) assay, HTC cells expressing Edg-4; conditions: concentrations as high as 20 μM
Edg-5 = target: T3, Edg-5 (Homo sapiens, UniProt O95136); assay: Intracellular calcium (FLIPR) assay, HTC cells expressing Edg-5; conditions: concentrations as high as 20 μM
T3 construct: expressed in transfected cells; host or cells: HTC rat hepatoma cells

Edg-6 = target: T4, Edg-6 (Homo sapiens, UniProt O95977); assay: Intracellular calcium (FLIPR) assay, HTC cells expressing Edg-6; conditions: concentrations as high as 20 μM
T4 construct: expressed in transfected cells; host or cells: HTC rat hepatoma cells
T4 sequence (O95977 1-384): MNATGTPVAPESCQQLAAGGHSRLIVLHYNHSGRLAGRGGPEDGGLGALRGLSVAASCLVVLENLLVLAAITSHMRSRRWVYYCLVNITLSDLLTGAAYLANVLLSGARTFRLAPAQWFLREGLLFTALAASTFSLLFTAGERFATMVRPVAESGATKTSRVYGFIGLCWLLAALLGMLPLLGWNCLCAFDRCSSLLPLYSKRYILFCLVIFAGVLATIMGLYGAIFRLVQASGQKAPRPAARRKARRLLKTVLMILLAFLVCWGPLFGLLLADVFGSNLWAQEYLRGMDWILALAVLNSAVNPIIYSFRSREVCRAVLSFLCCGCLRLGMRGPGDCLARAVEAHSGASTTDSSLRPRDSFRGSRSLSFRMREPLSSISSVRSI

Edg-7 = target: T5, Edg-7 (Homo sapiens, UniProt Q9UBY5); assay: Intracellular calcium (FLIPR) assay, HTC cells expressing Edg-7; conditions: concentrations as high as 20 μM
T5 construct: expressed in transfected cells; host or cells: HTC rat hepatoma cells
T5 sequence (Q9UBY5 1-353): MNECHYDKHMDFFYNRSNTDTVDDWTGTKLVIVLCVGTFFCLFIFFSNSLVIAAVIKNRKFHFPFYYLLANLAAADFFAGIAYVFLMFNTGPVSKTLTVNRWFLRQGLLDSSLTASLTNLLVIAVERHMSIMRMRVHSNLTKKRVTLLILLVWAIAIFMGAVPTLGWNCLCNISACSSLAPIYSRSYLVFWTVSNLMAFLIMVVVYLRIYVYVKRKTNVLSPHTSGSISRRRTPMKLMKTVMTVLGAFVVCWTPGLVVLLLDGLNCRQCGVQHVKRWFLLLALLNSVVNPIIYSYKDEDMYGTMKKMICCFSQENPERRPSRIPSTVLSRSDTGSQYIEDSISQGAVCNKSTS

Edg-8 = target: T6, Edg-8 (Homo sapiens, UniProt Q9H228); assay: Intracellular calcium (FLIPR) assay, HTC cells expressing Edg-8; conditions: concentrations as high as 20 μM
T6 construct: expressed in transfected cells; host or cells: HTC rat hepatoma cells

human Edg-1 receptors = human Edg-1 receptors (Homo sapiens, UniProt P21453); assay: Intracellular calcium (FLIPR) assay, HTC cells expressing Edg-1; design: Edg 1 IC50 μM; fused on or other part: in the chimera reading: the third intracellular loop (i3) of Edg-3 (S1PR3) in place of Edg-1's own; conditions: FIG. 1-3
Method: The compounds were tested in HTC cells expressing human Edg-1 receptors. […] The compounds were tested in this recombinant system first, and subsequently tested in cell lines expressing Edg-1 (in addition to other Edg receptors).
[…] receptors such as Edg-1, couple to calcium effector pathways, and result in increases in intracellular calcium following receptor activation (An, 1998, J. Cell Biochem. Supp 30-31:147-157). This biological response lends itself to a very efficient, high-throughput screen using a Fluorescence Imaging Plate Reader (FLIPR; Molecular Devices, Sunnyvale, Calif.). The FLIPR system is a real-time, cell-based assay system with continuous fluorescence detection using a cooled CCD camera. The FLIPR system was used to develop an Edg-1 receptor screen. Rat hepatoma cells stably expressing Edg-1/3i3 chimera or Edg-1 and Gqi were plated on 384-well plates and loaded with a calcium dye loading kit (Molecular Devices, Sunnyvale, Calif.) for 1 hour at room temperature. Cells were then placed on the FLIPR^384 (Molecular Devices, Sunnyvale, Calif.) and excited by an argon laser at 488 nm. The data for the entire 384-well plate was updated every second. An integrated robotic pipettor allowed for simultaneous compound addition into each individual well in the plate.

O=C(c1cccnc1)N1N=C(C(F)(F)F)CC1(O)c1ccc(Cl)cc1 (centres unmarked) [Compound 105]
activity against Edg receptors other than Edg-1 [1]: no activity

O=C(c1ccccc1)N1N=C(c2ccccc2)CC1(O)C(F)(F)F (centres unmarked) [Compound 111]
activity against Edg receptors other than Edg-1 [1]: no activity

CCc1ccc(C2=NN(C(=O)c3cccnc3)C(O)(C(F)(F)F)C2)cc1 (centres unmarked) [Compound 106]
activity against Edg receptors other than Edg-1 [1]: no activity

Nc1ccc(C(=O)N2N=C(c3ccc(F)cc3)CC2(O)C(F)(F)F)cc1 (centres unmarked) [Compound 109]
activity against Edg receptors other than Edg-1 [1]: no activity

COc1cc2c(cc1OC)[C@H]1CN3CCc4cc(OC)c(OC)cc4[C@H]3CN1CC2 [Compound 103]
inhibition of LPA-stimulated calcium increases in HTC cells expressing Edg-2 (Edg-2): did not inhibit | inhibition of S1P-stimulated calcium increases in HTC cells expressing Edg-3 (Edg-3): did not inhibit | inhibition of LPA-stimulated calcium increases in HTC cells expressing Edg-4 (Edg-4): did not inhibit | inhibition of S1P-stimulated calcium increases in HTC cells expressing Edg-5 (Edg-5): did not inhibit | inhibition of S1P-stimulated calcium increases in HTC cells expressing Edg-6 (Edg-6): did not inhibit | inhibition of LPA-stimulated calcium increases in HTC cells expressing Edg-7 (Edg-7): did not inhibit | inhibition of S1P-stimulated calcium increases in HTC cells expressing Edg-8 (Edg-8): did not inhibit | inhibition of Edg-1 receptors (human Edg-1 receptors): specifically inhibited

O=C(c1cccnc1)N1N=C(c2ccc(F)cc2)CC1(O)C(F)(F)F (centres unmarked) [Compound 112]
activity against Edg receptors other than Edg-1 [1]: no activity

O=C(c1cccnc1)N1N=C(c2ccccc2)CC1(O)C(F)(F)F (centres unmarked) [Compound 107]
activity against Edg receptors other than Edg-1 [1]: no activity

Nc1ccc(C(=O)N2N=C(c3ccccc3)CC2(O)C(F)(F)F)cc1 (centres unmarked) [Compound 108]
activity against Edg receptors other than Edg-1 [1]: no activity

Nc1ccc(C(=O)N2N=C(C(F)(F)F)CC2(O)c2ccc(Br)cc2)cc1 (centres unmarked) [Compound 110]
activity against Edg receptors other than Edg-1 [1]: no activity

O=C(c1ccccc1F)N1N=C(C(F)(F)F)CC1(O)c1ccc(Cl)cc1 (centres unmarked) [Compound 113]
activity against Edg receptors other than Edg-1 [1]: no activity
